Measurements reported in PubChem BioAssay AID504804 (Drosophila RNAi Screening Center, 2011)
Aim: 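Fly genes whose loss lessens doxorubicin-driven cell death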 (primary screen). System: Drosophila Kc cells. Reagent: long dsRNA against Drosophila genes, 0.5 µg dsRNA per well. Duration: 96 h (48 h knock-down, then 48 h drug). Conditions: doxorubicin 5 µg/ml for 48 h, added 48 h after dsRNA. Detection: 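Viability measured as cellular ATP by luminescence after 48 h knock-down then 48 h doxorubicin at 5 µg/ml; unnormalised plate counts for each replicate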. Reading the numbers: raw ATP luminescence: higher = more viable cells, protection from doxorubicin. Hit rule: 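Active when both duplicate wells lie at least 2 SD above the plate mean and protection is confirmed by rescreening and independent dsRNAs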.
The screen tested about 19,000 reagents; this is an unselected part of those with a known target gene and a result. Over the whole deposit, 47 (0.25%) got an active call. 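Signals are raw, not normalised; exact z-scores behind calls not deposited; actives needed confirmation, so some wells reaching 2 SD are inactive.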 Reagents against one gene are numbered here.

{"gene knocked down": "Klp59D", "dsRNA no.": 1, "raw ATP luminescence, replicate 1": 40127, "raw ATP luminescence, replicate 2": 68337, "Outcome": "inactive"}
{"gene knocked down": "Nelf-E", "dsRNA no.": 1, "raw ATP luminescence, replicate 1": 90620, "raw ATP luminescence, replicate 2": 73123, "Outcome": "inactive"}
{"gene knocked down": "CG9344", "dsRNA no.": 1, "raw ATP luminescence, replicate 1": 58097, "raw ATP luminescence, replicate 2": 55443, "Outcome": "inactive"}
{"gene knocked down": "CG13364", "dsRNA no.": 1, "raw ATP luminescence, replicate 1": 55580, "raw ATP luminescence, replicate 2": 52460, "Outcome": "inactive"}
{"gene knocked down": "CG13364", "dsRNA no.": 2, "raw ATP luminescence, replicate 1": 3.04e5, "raw ATP luminescence, replicate 2": 3.12e5, "Outcome": "inactive"}
{"gene knocked down": "Actn3", "dsRNA no.": 1, "raw ATP luminescence, replicate 1": 76960, "raw ATP luminescence, replicate 2": 84220, "Outcome": "inactive"}
{"gene knocked down": "wun", "dsRNA no.": 1, "raw ATP luminescence, replicate 1": 65050, "raw ATP luminescence, replicate 2": 71550, "Outcome": "inactive"}
{"gene knocked down": "Nedd4", "dsRNA no.": 1, "raw ATP luminescence, replicate 1": 44170, "raw ATP luminescence, replicate 2": 46720, "Outcome": "inactive"}
{"gene knocked down": "CG3088", "dsRNA no.": 1, "raw ATP luminescence, replicate 1": 41100, "raw ATP luminescence, replicate 2": 30740, "Outcome": "inactive"}
{"gene knocked down": "CG34026", "dsRNA no.": 1, "raw ATP luminescence, replicate 1": 1.88e5, "raw ATP luminescence, replicate 2": 1.98e5, "Outcome": "inactive"}
{"gene knocked down": "Or67d", "dsRNA no.": 1, "raw ATP luminescence, replicate 1": 72137, "raw ATP luminescence, replicate 2": 55470, "Outcome": "inactive"}
{"gene knocked down": "CG7878", "dsRNA no.": 1, "raw ATP luminescence, replicate 1": 68757, "raw ATP luminescence, replicate 2": 60287, "Outcome": "inactive"}

A few values from above.
Under “Outcome”, Klp59D shows inactive
For “raw ATP luminescence, replicate 2”, Nelf-E is entered as 73123
